Data published in US20020045780A1, “Biologically active spermidine analogues, pharmaceutical compositions and methods of treatment” (priority 1997, published 2002).

System: L1210 cells
Test: Summation of intracellular analogue and polyamine amine equivalence
Format: cell-based, murine
Conditions: 48 hours

| Compound | Picoequivalents of Amine/10^6 cells (× 10^3) (L1210, 500 μM) | further results |
| --- | --- | --- |
| CCCNCCCCNCCCCNCCC [DPHSPD, N^1,N^9-Dipropylhomospermidine Trihydrochloride] | 15.99 picoequivalents/10^6 cells (× |  |
| CCNCCCCCNCCCCCNCC [DE(5,5), 3,9,15-Triazaheptadecane Trihydrochloride] |  | Picoequivalents of Amine/10^6 cells (× 10^3) (L1210, 75 μM): 9.01 picoequivalents/10^6 cells (× |
| CCNCCCCCNCCCCNCC [DE(4,5), 3,8,14-Triazahexadecane Trihydrochloride] |  | Picoequivalents of Amine/10^6 cells (× 10^3) (L1210, 15 μM): 14.59 picoequivalents/10^6 cells (× |
| CNCCCCCNCCCCCNC [DM(5,5), 2,8,14-Triazapentadecane Trihydrochloride] |  | Picoequivalents of Amine/10^6 cells (× 10^3) (L1210, 75 μM): 15.5 picoequivalents/10^6 cells (× |
| CCCNCCCNCCCN [MPNSPD, N^1-Propylnorspermidine Trihydrochloride] | 17.71 picoequivalents/10^6 cells (× |  |
| CNCCCCNCCCCNC [DMHSPD, N^1,N^9-Dimethylhomospermidine Trihydrochloride] | 20.34 picoequivalents/10^6 cells (× |  |
| CCCNCCCCCNCCCCNCCC [DP(4,5), 4,9,15-Triazaoctadecane Trihydrochloride] | 15.15 picoequivalents/10^6 cells (× |  |
| CCCNCCCNCCCCN [MPSPD(N1), N^1-Propylspermidine Trihydrochloride] | 18.25 picoequivalents/10^6 cells (× |  |
| CCNCCCNCCCNCC [DENSPD, N^1,N^7-Diethylnorspermidine Trihydrochloride] | 13.70 picoequivalents/10^6 cells (× |  |
| CCCNCCCCNCCCN [MPSPD(N8), N^8-Propylspermidine Trihydrochloride] | 19.59 picoequivalents/10^6 cells (× |  |
| CCNCCCCNCCCNCC [DESPD, N^1,N^8-Diethylspermidine Trihydrochloride] | 14.05 picoequivalents/10^6 cells (× |  |
| CCCNCCCCNCCCNCCC [DPSPD, N^1,N^8-Dipropylspermidine Trihydrochloride] | 15.33 picoequivalents/10^6 cells (× |  |
| CCCNCCCCCNCCCCCNCCC [DP(5,5), 4,10,16-Triazanonadecane Trihydrochloride] | 13.91 picoequivalents/10^6 cells (× |  |
| CCCNCCCCNCCCCN [MPHSPD, N^1-Propylhomospermidine Trihydrochloride] | 20.55 picoequivalents/10^6 cells (× |  |
| CNCCCCNCCCNC [DMSPD, N^1,N^8-Dimethylspermidine Trihydrochloride] | 16.09 picoequivalents/10^6 cells (× |  |
| CCNCCCCNCCCCNCC [DEHSPD, N^1,N^9-Diethylhomospermidine Trihydrochloride] |  | Picoequivalents of Amine/10^6 cells (× 10^3) (L1210, 125 μM): 16.92 picoequivalents/10^6 cells (× |
| CCCNCCCNCCCNCCC [DPNSPD, N^1,N^7-Dipropylnorspermidine Trihydrochloride] | 15.01 picoequivalents/10^6 cells (× |  |
| CCNCCCNCCCCN [MESPD(N1), N^1-Ethylspermidine Trihydrochloride] | 16.99 picoequivalents/10^6 cells (× |  |
| CNCCCCCNCCCCNC [DM(4,5), 2,7,13-Triazatetradecane Trihydrochloride] |  | Picoequivalents of Amine/10^6 cells (× 10^3) (L1210, 10 μM): 20.81 picoequivalents/10^6 cells (× |
| CCNCCCCNCCCN [MESPD(N8), N^8-Ethylspermidine Trihydrochloride] | 17.99 picoequivalents/10^6 cells (× |  |
| CNCCCNCCCNC [DMNSPD, N^1,N^7-Dimethylnorspermidine Trihydrochloride] | 18.40 picoequivalents/10^6 cells (× |  |

Counter-ions that a name gives are not always drawn.
